# Experimental data taken from publication PMC9510782.
# Amino acid sequences for entries named in this document (tags omitted).
# UniProt P22366: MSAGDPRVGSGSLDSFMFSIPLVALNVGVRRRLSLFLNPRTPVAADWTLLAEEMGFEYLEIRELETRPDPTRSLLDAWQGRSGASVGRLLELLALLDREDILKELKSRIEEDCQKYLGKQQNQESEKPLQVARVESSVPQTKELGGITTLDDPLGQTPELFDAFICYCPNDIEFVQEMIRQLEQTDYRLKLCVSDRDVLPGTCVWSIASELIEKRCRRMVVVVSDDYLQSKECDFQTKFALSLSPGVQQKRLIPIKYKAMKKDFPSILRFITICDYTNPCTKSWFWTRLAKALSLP
# Results are given in words; binding and its absence hold for the method and conditions named. Binding seen in cells or lysates may run through a third protein. Some entries that bind do so weakly or less than the wild type. Sequences can lack the tags named with a protein.
# Target: HA-tagged MyD88 (UniProt P22366)
# Test: co-IP; HEK293T cells co-transfected with HA-MyD88 and FLAG-Dok3 or its truncation variants (and His-SHP-2); lysates IP with anti-HA; blotted with anti-HA, anti-FLAG, anti-His
row,binding,Binder
1,binds,"FLAG-tagged Dok3 truncation variant bearing the PH domain (domain or fragment, UniProt Q9QZK7 7-123) PVKDGILYQQHVKFGKKCWRKVWALLYAGGPSGVARLESWDVRDGGLGPAGDRSTGPSRRGERRVIRLADCVSVLPADGESCPRDTGAFLITTTERSHLLAAQHRQSWVDPICQLAF"
2,binds,"FLAG-tagged Dok3 (full-length) (protein, UniProt Q9QZK7 1-444) MESVEPPVKDGILYQQHVKFGKKCWRKVWALLYAGGPSGVARLESWDVRDGGLGPAGDRSTGPSRRGERRVIRLADCVSVLPADGESCPRDTGAFLITTTERSHLLAAQHRQSWVDPICQLAFPGTGECSSGSGQAESPKRGFVPMEENSIYSSWQEVTEFPVIVQRTEATSRCQLKGPYLLVLGQDDIQLRETSKPQACFSWPYRFLRKYGSDKGVFSFEAGRRCDSGEGLFAFSSPRAPDICGVVAAAIARQRERLPELAMSPPCPLPRALSLPSLEPPGELREVAPGFELPTPRKLPLTDPGPQSLPLLLSPTQEGPASGLYASVCKQTSKHTGTAEHLYENVCMLEASPGLTNGGPEAQEGPPGGRSPLGSPIYHNTEDLSWPGSAQDSNLEAQYRRLLELELDEAGSAGRSGAQAGIKAKLVTLLTRERKKGPAPCDRP"
